Patent publication US11169443B2, “Gap filling composition and pattern forming method using low molecular weight compound” (AZ Electronic Materials (Luxembourg) S.a.r.l., priority 2016, dated 2021)

Tests used:
[1] = Evaluation of application property (coatability); parameters: key: A: uniform coating was formed; B: coating was formed but contained plaque; C: coating was not formed; conditions: for coatability after dissolution into IPA: 20% in IPA; for coatability after dissolution into IPA / coatability after dissolution into PGME / coatability after dissolution into water: 1000 rpm; for coatability after dissolution into IPA:water = 7:3: 20% in IPA:water = 7:3, 1000 rpm; for coatability after dissolution into PGME: 20% in PGME; for coatability after dissolution into water: 20% in water
[2] = Pattern collapse rate, removal of composition by reduced pressure
[3] = Evaluation of pattern collapse rate (composition removed by heating); conditions: relative to water
[4] = Evaluation of residue (film thickness after application and after bake)
[5] = 20% in IPA:water = 7:3, heated at 250° C. for 180 seconds
[6] = 20% in IPA, heated at 250° C. for 180 seconds
[7] = 20% in IPA:water = 7:3, after application

Row | Molecule | coatability after dissolution into IPA [1] | coatability after dissolution into IPA:water = 7:3 [1] | coatability after dissolution into PGME [1] | coatability after dissolution into water [1] | pattern collapse rate [3, 5] | pattern collapse rate [3, 6] | post-bake thickness of residual film 110° C./60 s ([4]; 20% in IPA) | post-bake thickness of residual film 130° C./60 s ([4]; 20% in IPA) | film thickness ([4]; 20% in IPA, after application) | post-bake thickness of residual film 110° C./60 s ([4]; 20% in IPA:water = 7:3) | post-bake thickness of residual film 130° C./60 s ([4]; 20% in IPA:water = 7:3) | film thickness [4, 7] | post-bake thickness of residual film 110° C./60 s ([4]; 20% in PGME) | post-bake thickness of residual film 130° C./60 s ([4]; 20% in PGME) | film thickness ([4]; 20% in PGME, after application) | also measured
1 | OCCCCCO [1,5-pentanediol] | A | A | A | C | 7% | 6% | 0 μm | 0 μm | 1.2 μm | 0 μm | 0 μm | 1.2 μm | 0 μm | 0 μm | 1.2 μm | pattern collapse rate ([2]; 25% in PGME, reduced pressure 5.3 kPa/301 s): 0%
2 | CC(C)(O)CC(C)(C)O [2,4-dimethyl-2,4-pentanediol] | A | A | A | C | – | – | – | – | – | – | – | – | 0 μm | 0 μm | 1.2 μm | –
3 | OC1CCC(O)C1 (stereo not drawn) [1,3-cyclopentanediol] | B | A | B | C | – | – | – | – | – | – | – | – | 0 μm | 0 μm | 1.2 μm | –
4 | OCCCCC(O)CO (stereo not drawn) [1,2,6-hexanetriol] | B | A | A | C | – | – | – | – | – | – | – | – | 0.3 μm | 0 μm | 1.2 μm | pattern collapse rate ([2]; 22% in PGME, reduced pressure 3.5 kPa/306 s): 0%
5 | OC1CCCCC1O (stereo not drawn) [1,2-cyclohexanediol] | B | A | B | C | – | – | – | – | – | – | – | – | 0 μm | 0 μm | 1.2 μm | pattern collapse rate ([2]; 22% in PGMEA, reduced pressure 1.6 kPa/303 s): 0%
6 | CCC(O)CCO (stereo not drawn) [1,3-pentanediol] | A | A | A | C | 4% | 5% | 0 μm | 0 μm | 1.3 μm | 0 μm | 0 μm | 1.3 μm | 0 μm | 0 μm | 1.3 μm | –
7 | water [reference compound] | – | – | – | – | – | – | – | – | – | – | – | – | – | – | – | pattern collapse rate ([3]; liquid alone, no gap filling compound, not heated, dried by spin dry): 100%
8 | CC(O)CCO (stereo not drawn) [1,3-butanediol] | A | A | A | C | 5% | 5% | 0 μm | 0 μm | 1.2 μm | 0 μm | 0 μm | 1.2 μm | 0 μm | 0 μm | 1.2 μm | coatability ([1]; 20% in IPA:water = 0:1): C; coatability ([1]; 20% in IPA:water = 1:0): A; coatability ([1]; 20% in IPA:water = 1:1): C; coatability ([1]; 20% in IPA:water = 1:3): C; coatability ([1]; 20% in IPA:water = 3:1): A; film thickness ([4]; 20% in IPA:water = 1:0): 1.3 μm; film thickness ([4]; 20% in IPA:water = 3:1): 1.4 μm
9 | CC(O)CC(C)O (stereo not drawn) [2,4-pentanediol] | A | A | A | C | 5% | 3% | 0 μm | 0 μm | 1.2 μm | 0 μm | 0 μm | 1.2 μm | 0 μm | 0 μm | 1.2 μm | –
